No constants are given. Whether binding was seen depends on the method and setting. Binding seen in cells or lysates may run through a third protein. Where a sequence is shown, tags or fusion partners need not be part of it.
Molecular target: T1, V5-tagged Diedel (wild type, Die^RGD-V5) (Drosophila melanogaster) (UniProt Q9VAK8)
T1 sequence: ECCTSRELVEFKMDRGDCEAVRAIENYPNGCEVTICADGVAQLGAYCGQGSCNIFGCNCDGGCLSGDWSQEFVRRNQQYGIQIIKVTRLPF
Assay: co-IP; S2R+ cells cotransfected with Cat-Flag and Die-V5, +/- UV 100 mJ/cm^2; native (non-crosslinking) conditions; lysis buffer with 0.1% SDS, 1% Triton, 150 mM NaCl; Protein G Sepharose overnight at 4°C; washes up to 500 mM NaCl; western blot with anti-Flag and anti-V5

B1: Flag-tagged Catalase (Flag-Cat) (enzyme, UniProt P17336 1-506)
chain: MAGRDAASNQLIDYKNSQTVSPGAITTGNGAPIGIKDASQTVGPRGPILLQDVNFLDEMSHFDRERIPERVVHAKGAGAFGYFEVTHDITQYCAAKIFDKVKKRTPLAVRFSTVGGESGSADTARDPRGFAVKFYTEDGVWDLVGNNTPVFFIRDPILFPSFIHTQKRNPQTHLKDPDMFWDFLTLRPESAHQVCILFSDRGTPDGYCHMNGYGSHTFKLINAKGEPIYAKFHFKTDQGIKNLDVKTADQLASTDPDYSIRDLYNRIKTCKFPSWTMYIQVMTYEQAKKFKYNPFDVTKVWSQKEYPLIPVGKMVLDRNPKNYFAEVEQIAFSPAHLVPGVEPSPDKMLHGRLFSYSDTHRHRLGPNYLQIPVNCPYKVKIENFQRDGAMNVTDNQDGAPNYFPNSFNGPQECPRARALSSCCPVTGDVYRYSSGDTEDNFGQVTDFWVHVLDKCAKKRLVQNIAGHLSNASQFLQERAVKNFTQVHADFGRMLTEELNLAKSSKF
- binding: no binding
